Experimental data reported in publication PMC4194125.
Results are given in words; binding and its absence hold for the method and conditions named. In cells and extracts the contact can be indirect. Some entries that bind do so weakly or less than the wild type.

Amino acid sequences for entries named in this document (tags omitted).
UniProt P49407: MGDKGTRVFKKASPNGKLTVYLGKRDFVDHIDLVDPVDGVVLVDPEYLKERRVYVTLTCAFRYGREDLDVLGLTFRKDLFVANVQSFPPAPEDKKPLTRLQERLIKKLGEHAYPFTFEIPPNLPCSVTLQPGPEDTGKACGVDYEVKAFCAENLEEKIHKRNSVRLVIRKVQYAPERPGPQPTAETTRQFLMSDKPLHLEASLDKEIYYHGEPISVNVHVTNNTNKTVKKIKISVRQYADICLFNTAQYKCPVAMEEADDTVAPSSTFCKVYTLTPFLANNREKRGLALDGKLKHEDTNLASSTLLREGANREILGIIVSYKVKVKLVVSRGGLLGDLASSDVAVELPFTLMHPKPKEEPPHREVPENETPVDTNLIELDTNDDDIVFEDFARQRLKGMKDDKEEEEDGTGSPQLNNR
UniProt Q16665: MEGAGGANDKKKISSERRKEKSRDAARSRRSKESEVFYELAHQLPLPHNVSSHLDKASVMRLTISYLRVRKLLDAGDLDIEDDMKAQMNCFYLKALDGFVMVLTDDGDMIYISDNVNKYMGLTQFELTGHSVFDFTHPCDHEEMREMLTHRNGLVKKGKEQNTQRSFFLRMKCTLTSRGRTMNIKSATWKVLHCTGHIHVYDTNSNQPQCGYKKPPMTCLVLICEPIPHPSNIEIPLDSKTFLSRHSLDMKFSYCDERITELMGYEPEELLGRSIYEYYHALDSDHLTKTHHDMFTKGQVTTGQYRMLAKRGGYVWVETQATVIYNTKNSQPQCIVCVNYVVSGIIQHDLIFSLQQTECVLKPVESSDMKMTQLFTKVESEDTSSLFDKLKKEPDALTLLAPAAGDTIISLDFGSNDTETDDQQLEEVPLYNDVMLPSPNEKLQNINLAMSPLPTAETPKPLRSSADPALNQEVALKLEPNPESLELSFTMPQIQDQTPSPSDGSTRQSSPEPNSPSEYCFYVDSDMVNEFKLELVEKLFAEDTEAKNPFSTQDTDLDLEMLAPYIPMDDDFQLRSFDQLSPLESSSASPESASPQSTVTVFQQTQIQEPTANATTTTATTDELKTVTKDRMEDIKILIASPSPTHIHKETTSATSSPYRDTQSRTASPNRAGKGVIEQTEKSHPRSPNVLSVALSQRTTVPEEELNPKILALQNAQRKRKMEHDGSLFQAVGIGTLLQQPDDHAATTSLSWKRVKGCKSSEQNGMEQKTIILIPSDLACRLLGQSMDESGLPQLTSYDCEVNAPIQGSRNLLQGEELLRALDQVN

Target: Beta-arrestin1 (human (endogenous in C4-2)) (UniProt P49407)
Assay: co-IP; nuclear extracts of hypoxia-treated C4-2 cells expressing endogenous levels of ARRB1

In the case of “Hypoxia-inducible factor 1A (from UniProt Q16665 1-826)”, the binding is reported as “binds”.
